Data as given in PMC3065274.
Results are given in words; binding and its absence hold for the method and conditions named. Binding seen in cells or lysates may run through a third protein. Some entries that bind do so weakly or less than the wild type.

Sequences of proteins named here, by UniProt entry; tags and fusion partners are left off.
UniProt P35222: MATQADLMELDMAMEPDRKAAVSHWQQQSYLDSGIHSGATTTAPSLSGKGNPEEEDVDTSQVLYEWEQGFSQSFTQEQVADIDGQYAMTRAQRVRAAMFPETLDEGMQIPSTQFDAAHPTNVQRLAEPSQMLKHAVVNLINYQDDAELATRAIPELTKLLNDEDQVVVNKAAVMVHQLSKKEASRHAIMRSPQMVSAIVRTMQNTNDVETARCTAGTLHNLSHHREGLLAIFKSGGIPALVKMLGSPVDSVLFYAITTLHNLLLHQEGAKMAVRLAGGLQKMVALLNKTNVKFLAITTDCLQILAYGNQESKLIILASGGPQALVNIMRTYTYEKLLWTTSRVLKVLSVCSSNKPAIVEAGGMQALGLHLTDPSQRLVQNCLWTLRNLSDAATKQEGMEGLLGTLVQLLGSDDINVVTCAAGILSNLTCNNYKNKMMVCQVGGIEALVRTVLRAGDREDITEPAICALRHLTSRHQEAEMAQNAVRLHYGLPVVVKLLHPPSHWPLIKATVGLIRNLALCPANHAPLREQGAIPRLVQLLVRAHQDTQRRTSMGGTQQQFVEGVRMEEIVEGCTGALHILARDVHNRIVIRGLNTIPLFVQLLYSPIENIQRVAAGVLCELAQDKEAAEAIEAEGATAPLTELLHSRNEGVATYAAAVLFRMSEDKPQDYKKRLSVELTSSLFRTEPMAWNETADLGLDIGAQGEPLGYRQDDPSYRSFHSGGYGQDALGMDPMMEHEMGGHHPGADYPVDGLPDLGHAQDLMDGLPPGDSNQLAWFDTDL

Target: β-catenin (human (endogenous in NIH:OVCAR3)) (UniProt P35222)
Assay: co-IP; lysate from adherent NIH:OVCAR3 cells, endogenous proteins; immunoprecipitated with anti-CA125/MUC16 (M11), anti-E-cadherin or anti-β-catenin antibody, control IgG alongside; in the presence or absence of EGF; immunoblot

Substance: CA125/MUC16 mucin (from UniProt Q8WXI7 1-14507)
- binding: binds
